According to ChEMBL document CHEMBL1687827, “Profiling the Aspergillus fumigatus proteome in response to caspofungin” (2011):
Further values from the same series stand in other lists.

What was measured:
Type in all cases: functional
[1] = test system: Aspergillus fumigatus; test: Induction of change in cell wall protein, putative protein level in iTRAQ-118 labelled cell wall fraction of drug-susceptible Aspergillus fumigatus KU80 delta-akuB at 0.12 ug/ml after 24 hrs in YPD medium by MS (MS/MS) analysis relative to control
[2] = test system: Aspergillus fumigatus; test: Induction of change in ribosomal protein S14.e protein level in iTRAQ114 labelled secreted fraction of drug-susceptible Aspergillus fumigatus KU80 delta-akuB at 0.12 ug/ml after 24 hrs in YPD medium by MS (MS/MS) analysis relative to control
[3] = test system: Aspergillus fumigatus; test: Induction of change in 60s ribosomal protein l2 protein level in iTRAQ114 labelled cell wall fraction of drug-susceptible Aspergillus fumigatus KU80 delta-akuB at 0.12 ug/ml after 24 hrs in YPD medium by MS (MS/MS) analysis relative to control
[4] = test system: Aspergillus fumigatus; test: Induction of change in phosphoglycerate kinase PgkA, putative protein level in iTRAQ-118 labelled cell wall fraction of drug-susceptible Aspergillus fumigatus KU80 delta-akuB at 0.12 ug/ml after 24 hrs in YPD medium by MS (MS/MS) analysis relative to control
[5] = test system: Aspergillus fumigatus; test: Induction of change in plasma membrane H -ATPase gene expression in drug-susceptible Aspergillus fumigatus KU80 delta-akuB at 0.12 ug/ml after 48 hrs in YPD medium by microarray analysis relative to control
[6] = test system: Aspergillus fumigatus; test: Induction of change in hypothetical gene expression in drug-susceptible Aspergillus fumigatus KU80 delta-akuB at 0.12 ug/ml after 24 hrs in YPD medium by microarray analysis relative to control
[7] = test system: Aspergillus fumigatus; test: Induction of change in nucleoside diphosphate kinase protein level in iTRAQ-116 labelled secreted fraction of drug-resistant Aspergillus fumigatus EMFR-S678P at 0.12 ug/ml after 48 hrs in YPD medium by MS (MS/MS) analysis relative to control
[8] = test system: Aspergillus fumigatus; test: Induction of change in ribosomal protein L37a gene expression in drug-susceptible Aspergillus fumigatus KU80 delta-akuB at 0.12 ug/ml after 24 hrs in YPD medium by microarray analysis relative to control
[9] = test system: Aspergillus fumigatus; test: Induction of change in secreted dipeptidyl peptidase DppV protein level in iTRAQ-118 labelled cell wall fraction of drug-resistant Aspergillus fumigatus EMFR-S678P at 0.12 ug/ml after 48 hrs in YPD medium by MS (MS/MS) analysis relative to control
[10] = test system: Aspergillus fumigatus; test: Induction of change in hypothetical gene locus AFUA_3G02730 expression in drug-susceptible Aspergillus fumigatus KU80 delta-akuB at 0.12 ug/ml after 48 hrs in YPD medium by microarray analysis relative to control
[11] = test system: Aspergillus fumigatus; test: Induction of change in thioredoxin protein level in iTRAQ-118 labelled cell wall fraction of drug-resistant Aspergillus fumigatus EMFR-S678P at 0.12 ug/ml after 24 hrs in YPD medium by MS (MS/MS) analysis relative to control
[12] = test system: Aspergillus fumigatus; test: Induction of change in ribosomal protein L14 gene expression in drug-susceptible Aspergillus fumigatus KU80 delta-akuB at 0.12 ug/ml after 24 hrs in YPD medium by microarray analysis relative to control
[13] = test system: Aspergillus fumigatus; test: Induction of change in glycine-rich RNA-binding protein, putative protein level in iTRAQ-118 labelled cell wall fraction of drug-susceptible Aspergillus fumigatus KU80 delta-akuB at 0.12 ug/ml after 24 hrs in YPD medium by MS (MS/MS) analysis relative to control
[14] = test system: Aspergillus fumigatus; test: Induction of change in NAD-dependent formate dehydrogenase protein level in iTRAQ-116 labelled secreted fraction of drug-susceptible Aspergillus fumigatus KU80 delta-akuB at 0.12 ug/ml after 48 hrs in YPD medium by MS (MS/MS) analysis relative to control
[15] = test system: Aspergillus fumigatus; test: Induction of change in antioxidant protein LsfA gene expression in drug-susceptible Aspergillus fumigatus KU80 delta-akuB at 0.12 ug/ml after 48 hrs in YPD medium by microarray analysis relative to control
[16] = test system: Aspergillus fumigatus; test: Induction of change in glucosamine-fructose-6-phosphate aminotransferase protein level in iTRAQ-118 labelled cell wall fraction of drug-susceptible Aspergillus fumigatus KU80 delta-akuB at 0.12 ug/ml after 24 hrs in YPD medium by MS (MS/MS) analysis relative to control
[17] = test system: Aspergillus fumigatus; test: Induction of change in CipC-like antibiotic response protein, putative protein level in iTRAQ-116 labelled secreted fraction of drug-resistant Aspergillus fumigatus EMFR-S678P at 0.12 ug/ml after 48 hrs in YPD medium by MS (MS/MS) analysis relative to control
[18] = test system: Aspergillus fumigatus; test: Induction of change in hypothetical gene locus AFUA_3G13080 expression in drug-susceptible Aspergillus fumigatus KU80 delta-akuB at 0.12 ug/ml after 48 hrs in YPD medium by microarray analysis relative to control
[19] = test system: Aspergillus fumigatus; test: Induction of change in 60S ribosomal protein L22, putative protein level in iTRAQ114 labelled cell wall fraction of drug-resistant Aspergillus fumigatus EMFR-S678P at 0.12 ug/ml after 24 hrs in YPD medium by MS (MS/MS) analysis relative to control
[20] = test system: Aspergillus fumigatus; test: Induction of change in eukaryotic translation initiation factor subunit eIF-4F, putative protein level in iTRAQ-116 labelled secreted fraction of drug-susceptible Aspergillus fumigatus KU80 delta-akuB at 0.12 ug/ml after 48 hrs in YPD medium by MS (MS/MS) analysis relative to control
[21] = test system: Aspergillus fumigatus; test: Induction of change in ribosomal protein S9 gene expression in drug-susceptible Aspergillus fumigatus KU80 delta-akuB at 0.12 ug/ml after 24 hrs in YPD medium by microarray analysis relative to control
[22] = test system: Aspergillus fumigatus; test: Induction of change in PT repeat family protein level in iTRAQ114 labelled secreted fraction of drug-resistant Aspergillus fumigatus EMFR-S678P at 0.12 ug/ml after 24 hrs in YPD medium by MS (MS/MS) analysis relative to control
[23] = test system: Aspergillus fumigatus; test: Induction of change in PT repeat family protein level in iTRAQ-116 labelled secreted fraction of drug-resistant Aspergillus fumigatus EMFR-S678P at 0.12 ug/ml after 48 hrs in YPD medium by MS (MS/MS) analysis relative to control

`CC[C@H](C)C[C@H](C)CCCCCCCCC(=O)N[C@H]1C[C@@H](O)[C@@H](NCCN)NC(=O)[C@@H]2[C@@H](O)CCN2C(=O)[C@H]([C@H](O)CCN)NC(=O)[C@H]([C@H](O)[C@@H](O)c2ccc(O)cc2)NC(=O)[C@@H]2C[C@@H](O)CN2C(=O)[C@H]([C@@H](C)O)NC1=O` [CASPOFUNGIN] was tested, and the “fold change (FC)” value [1] was -2.5, the “fold change (FC)” value [2] was 1.2 and the “fold change (FC)” value [3] was 1.7. For the same compound, the “fold change (FC)” value [4] was -3.5, the “fold change (FC)” value [5] was -2.5 and the “fold change (FC)” value [6] was -5.3. The “fold change (FC)” value [7] was -1.15, the “fold change (FC)” value [8] was 6.2 and the “fold change (FC)” value [9] was -1.32. The “fold change (FC)” value [10] was 3.7, the “fold change (FC)” value [11] was 1.15 and the “fold change (FC)” value [12] was 4.7. The “fold change (FC)” value [13] was -2.3, the “fold change (FC)” value [14] was -1.6 and the “fold change (FC)” value [15] was -3. For the same compound, the “fold change (FC)” value [16] was 2.5, the “fold change (FC)” value [17] was -1.23 and the “fold change (FC)” value [18] was -3.1. The “fold change (FC)” value [19] was 1.07, the “fold change (FC)” value [20] was -8.6 and the “fold change (FC)” value [21] was 3.9. The “fold change (FC)” value [22] was 1.07 and the “fold change (FC)” value [23] was -1.15.
